For at least one compound, name, drawing or mass did not settle the structure.
System: Human keratinocytes
Test: Transglutaminase Assay (TGase I ELISA, Example 1 procedure), normalized to DNA; keratinocyte differentiation
Format: cell-based
Conditions: 2.5 x 10^-7M, 2.5 x 10^-8M and 2.5x10^-9M, vs ethanol control
Method: Human keratinocytes, isolated from neonatal foreskin by trypsin treatment were grown in Dulbecco Modification Eagle (DME) Hams F12 (1:1) medium/10% fetal calf serum in the presence of irradiated 3T3 mouse fibroblasts for establishing dividing keratinocyte colonies. Cells were grown under the above condition until their second passage and kept frozen for future use. Frozen second passage keratinocytes were thawed and plated into the above medium and grown for five days before they were switched to a serum-free MCDB 153-based medium keratinocyte growth medium (KGM) from Clonetics Corporation, San Diego, CA, containing 0.15 mM Ca, or keratinocyte serum-free media (KSFM) from GIBCO containing 0.09 mM Ca). On day 7, when the cells were 80-90% confluent, they were trypsinized and plated in the serum-free medium for the various experiments. […]
Keratinocytes (cultured as described above) were plated in 96 well plates at a density of 3,000 cells per well in 200 µl media. […] The absorbance of samples was read at 492nm in the plate reader. […] TGase levels were determined by subtracting background from the readings from each treatment and determining mean ± s.d. for the replicates exposed to both antibodies.
The level of TGase I detected after treatment of the cells could be influenced by cell number, i.e., the greater the number of cells the greater the level of TGase-1 detected. […]

Structure (SMILES): CC1=C(/C=C/C(C)=C/C=C/C(C)=C/C(=O)O)C(C)(C)CCC1 [retinoic acid]
- Transglutaminase levels normalized to DNA content of the cells: decreased keratinocyte differentiation over the ethanol control

Reference: patent EP0932387B1 (UNILEVER PLC, priority 1996, dated 1998)
